Here are results for one molecule from PMC10549964.

Chains of the proteins cited; added tags and fusions are not shown.
UniProt Q13490: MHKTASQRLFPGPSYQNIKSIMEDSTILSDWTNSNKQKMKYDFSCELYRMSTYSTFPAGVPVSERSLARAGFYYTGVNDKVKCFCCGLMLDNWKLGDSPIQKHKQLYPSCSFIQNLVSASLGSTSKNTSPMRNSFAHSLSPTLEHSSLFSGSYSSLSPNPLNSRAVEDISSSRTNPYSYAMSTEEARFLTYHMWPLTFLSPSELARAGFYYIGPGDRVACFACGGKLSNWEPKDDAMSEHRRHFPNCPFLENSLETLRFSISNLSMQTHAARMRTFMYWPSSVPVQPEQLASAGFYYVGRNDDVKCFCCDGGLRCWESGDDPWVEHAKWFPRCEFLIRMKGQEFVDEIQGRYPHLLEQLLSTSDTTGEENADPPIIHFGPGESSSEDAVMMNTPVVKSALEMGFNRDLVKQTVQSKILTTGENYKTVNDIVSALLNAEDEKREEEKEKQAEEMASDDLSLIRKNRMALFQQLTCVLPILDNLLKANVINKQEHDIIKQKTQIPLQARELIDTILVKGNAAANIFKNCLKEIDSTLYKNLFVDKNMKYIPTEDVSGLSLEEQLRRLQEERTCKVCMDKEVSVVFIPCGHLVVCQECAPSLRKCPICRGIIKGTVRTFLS

No constants are given. Whether binding was seen depends on the method and setting. In cells and extracts the contact can be indirect. Some results given as binding are weak or reduced against the parent protein; the word gives no strength.

In this assay the target is baculoviral IAP repeat-containing 2 (BIRC2) (human (endogenous in C28/I2)) (UniProt Q13490). In words: co-IP; RIPA lysate of cells incubated with anti-IgG antibody and anti-BIRC2/anti-TRADD antibody, protein A/G PLUS-Agarose beads, western blot with anti-TRADD and anti-BIRC2 antibodies. (In general: In western blotting, separated proteins are transferred to a membrane and probed.)

B1: tumor necrosis factor receptor 1-associated death domain protein (TRADD) (protein, UniProt Q15628 1-312)
chain: MAAGQNGHEEWVGSAYLFVESSLDKVVLSDAYAHPQQKVAVYRALQAALAESGGSPDVLQMLKIHRSDPQLIVQLRFCGRQPCGRFLRAYREGALRAALQRSLAAALAQHSVPLQLELRAGAERLDALLADEERCLSCILAQQPDRLRDEELAELEDALRNLKCGSGARGGDGEVASAPLQPPVPSLSEVKPPPPPPPAQTFLFQGQPVVNRPLSLKDQQTFARSVGLKWRKVGRSLQRGCRALRDPALDSLAYEYEREGLYEQAFQLLRRFVQAEGRRATLQRLVEALEENELTSLAEDLLGLTDPNGGLA
Consider B1, for which the binding result is listed as “binds”.
